Data reported in patent US20020045741A1.
No constants are given. Whether binding was seen depends on the method and setting. Binding seen in cells or lysates may run through a third protein. Some results given as binding are weak or reduced against the parent protein; the word gives no strength. Tags and fused reporters may be left off the sequences shown.

Molecular target: T1, C'-terminal I-SPY-tagged human NR6 (pEF-C'-I-SPY/hNR6, from 293T cells) (human) (UniProt O75462)
T1 sequence: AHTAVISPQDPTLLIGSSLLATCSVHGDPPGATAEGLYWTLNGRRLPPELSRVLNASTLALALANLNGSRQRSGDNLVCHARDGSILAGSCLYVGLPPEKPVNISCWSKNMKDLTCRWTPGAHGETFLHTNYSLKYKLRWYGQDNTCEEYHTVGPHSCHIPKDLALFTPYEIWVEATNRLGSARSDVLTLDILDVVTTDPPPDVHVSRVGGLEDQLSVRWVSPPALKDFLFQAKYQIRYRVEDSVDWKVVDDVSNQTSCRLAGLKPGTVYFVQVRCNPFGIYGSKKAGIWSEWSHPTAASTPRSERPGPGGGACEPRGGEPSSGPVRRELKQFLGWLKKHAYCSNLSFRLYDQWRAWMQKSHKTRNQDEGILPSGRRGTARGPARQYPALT
Test: co-immunoprecipitation from cotransfected 293T supernatant (anti-I-SPY resin, anti-FLAG blot); association of monomer chains

B1: C-terminal FLAG-tagged human NR6 (pEF-C'-FLAG/hNR6, from 293T or CHO cells) (receptor)
chain: AHTAVISPQDPTLLIGSSLLATCSVHGDPPGATAEGLYWTLNGRRLPPELSRVLNASTLALALANLNGSRQRSGDNLVCHARDGSILAGSCLYVGLPPEKPVNISCWSKNMKDLTCRWTPGAHGETFLHTNYSLKYKLRWYGQDNTCEEYHTVGPHSCHIPKDLALFTPYEIWVEATNRLGSARSDVLTLDILDVVTTDPPPDVHVSRVGGLEDQLSVRWVSPPALKDFLFQAKYQIRYRVEDSVDWKVVDDVSNQTSCRLAGLKPGTVYFVQVRCNPFGIYGSKKAGIWSEWSHPTAASTPRSERPGPGGGACEPRGGEPSSGPVRRELKQFLGWLKKHAYCSNLSFRLYDQWRAWMQKSHKTRNQDEGILPSGRRGTARGPARDYKDDDDK
binding: binds
